According to publication PMC5487345:
Results are given in words; binding and its absence hold for the method and conditions named. Binding seen in cells or lysates may run through a third protein. Binding can be weak; no strength is given. Where a sequence is shown, tags or fusion partners need not be part of it.

Biological target: T1, NhRL-MCT4 (full-length monocarboxylate transporter-4 fused to the N-terminal portion of Renilla luciferase) (UniProt O15427)
T1 sequence: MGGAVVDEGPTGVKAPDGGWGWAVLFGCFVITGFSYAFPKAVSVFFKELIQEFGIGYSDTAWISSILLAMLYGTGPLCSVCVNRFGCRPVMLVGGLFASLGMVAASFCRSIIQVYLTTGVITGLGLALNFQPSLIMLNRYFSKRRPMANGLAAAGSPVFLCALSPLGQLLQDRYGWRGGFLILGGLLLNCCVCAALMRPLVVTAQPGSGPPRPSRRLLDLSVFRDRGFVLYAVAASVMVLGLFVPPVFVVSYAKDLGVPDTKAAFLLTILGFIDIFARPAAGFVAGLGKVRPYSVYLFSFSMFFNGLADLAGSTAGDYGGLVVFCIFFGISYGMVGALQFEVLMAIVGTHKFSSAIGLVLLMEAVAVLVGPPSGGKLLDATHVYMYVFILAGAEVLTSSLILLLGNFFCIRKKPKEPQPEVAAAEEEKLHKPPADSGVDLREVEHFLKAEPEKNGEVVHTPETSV
Experiment: split reporter; split Renilla luciferase complementation in HEK293 cells co-transfected with the fusion constructs; Rluc activity normalised to Firefly luciferase from a CMV promoter and to empty vector

- binding: binds
Substance: Basigin-ChRL (full-length Basigin fused to the C-terminal portion of Renilla luciferase)
